Test results: US11738065B2, “Polypeptides and analogues thereof for use in the treatment of diabetes and bone disorders” (UNIVERSITY OF ULSTER, priority 2015, dated 2023)
Part of at least one peptide drawing is inferred or uncertain, most often the ends. Where a SMILES comes first, the peptide text is derived from it. [ ]: non-standard residue; d: D form.

What was measured:
high fat fed mice [1] = assay: Insulin sensitivity test and HOMA-IR after 21 days treatment; assay type: in vivo
Method: On day 21, a non-fasted 24 h glucose profile was conducted. […] HOMA-IR was determined using the equation HOMA-IR=fasting glucose (mmol/l)×fasting insulin (mU/l)/22.5. […] Terminal analysis included measurement of total body fat and lean mass by DEXA scanning (Piximus Densitometer, Inside Outside Sales, Madison Wis., USA) and extraction of pancreatic tissue for analysis as detailed below. […] Briefly, pancreatic tissues were fixed in 4% parafolmaldehyde at 4° C. for 48 h. Pancreata were then embedded in paraffin wax and processed using an automated tissue processor (Leica TP1020, Leica Microsystems, Nussloch, Germany). Immunohistochemistry was performed as described by Vasu et al., 2014 (PLoS One. 2014 Jun. 26; 9(6):e101005). […] Abcam, ab6995) or guinea-pig anti-glucagon antibody (PCA2/4, 1:400; raised in-house). […] The slides were viewed under a FITC (488 nm) or TRITC filter (594 nm) using a fluorescent microscope (Olympus system microscope, model BX51) and photographed using a DP70 camera adapter system. Islet parameters were analysed using Cell^F image analysis software (Olympus Soft Imaging Solutions, GmbH).

high fat fed mice [2] = assay: Microcomputed tomography of tibia trabecular and cortical bone after 42 days treatment; assay type: in vivo; conditions: microCT, vs saline controls
Method: The tibia was used to investigate trabecular and cortical bone microstructural morphology by microCT analysis with a Skyscan 1172 microtomograph (Bruker, Kontich, Belgium) equipped with an X-ray tube working at 69 kV/100 μA. The pixel size was fixed at 8.3 μm, the rotation step at 0.25° and exposure was performed with a 0.5-mm aluminum filter. Bone mass and morphometry parameters were calculated with the CTan software (release 1.11.4.2, Bruker). The trabecular parameters were assessed at the volume of interest (VOI), located 1 mm below the growth plate and spanning 2.5 mm in height. Trabecular bone volume (BV/TV, in %), trabecular number (Tb.N, in 1/mm) and trabecular separation (Tb.Sp, in μm) were measured according to guidelines and nomenclature proposed by the American Society for Bone and Mineral Research. Cortical parameters were determined at the midshaft tibia with a lab-made routine using ImageJ. […] (Ma.Ar), cortical area (Ct.Ar), total area (Tt.Ar), cortical thickness (Ct.Th, in μm) and cross-sectional moment of inertia (J in mm4) were also measured according to guidelines and nomenclature on bone histomorphometry proposed by the American Society for Bone and Mineral Research.

SaOS-2 cells [3] = assay: cAMP production in SaOS-2 cells; assay type: cell-based, Human; conditions: 60 min, 200 μM IBMX
Method: SaOS-2 cells were seeded at a density of 5e4 cells in 96-well plates. Cells were cultured in α-MEM 1× media supplemented with 10% FBS for 24 hours in order to allow attachment to the plate. Before the experiment, cells were washed with Hank's Balanced Salt Solution (HBSS). Cells were then incubated with various concentrations (1e-12-1e-6 M) of test peptides of the invention supplemented with 200 μM of 3-isobutyl-1-methylxanthine (IBMX). Plates were then incubated for 60 minutes at 37° C. Following this step, cells were washed 3 times with 150 μl PBS. Cell lysis was performed with 150 μl cell lysis buffer (R&D Systems) and a freeze (−20° C.)-thaw (37° C.) cycle was carried out. The contents were then collected into 500 μl tubes and centrifuged at 600 rpm for 10 min (4° C.). The supernatant was collected and cAMP was measured using a cAMP assay kit (R&D Systems) according to the manufacturer's instructions. The concentration of cAMP was calculated from a standard curve of cAMP ranging from 0 to 240 pmol/ml.

high fat fed mice [4] = assay: 42 day once daily study in high fat fed mice (body weight, composition, food intake, non-fasting glucose); assay type: in vivo; conditions: 25 nmol/kg once daily, 42 days
Excerpt: (§1) FIG. 10 illustrates body weight as measured for 3 days before and 42 days during (indicated by black horizontal bar) once daily treatment with saline vehicle (0.9% w/v NaCl), GIP/Xenin hybrid, GIP/Xenin hybrid Asp and GIP/Xenin hybrid Glu (each peptide at 25 nmol/kg bw). Values represent means±SEM for 5 mice;
FIG. 11A-11B illustrate (FIG. 11A) % Fat mass and (FIG. 11B) % Lean mass as measured by DEXA scanning in high fat fed mice following 42 days treatment with GIP/Xenin hybrid, GIP/Xenin hybrid Asp and GIP/Xenin hybrid Glu. Values represent means±SEM for 3-5 mice;
as §1, with “12” for “10”, “cumulative energy intake” for “body weight”, “days” for “days during”, “bar) during” for “bar)”, “3-5 mice. ^ΔP<0.05, ^ΔΔP<0.01, ^ΔΔΔP<0.001 compared to saline control;” for “5 mice;”
as §1, with “13” for “10”, “non fasting blood glucose” for “body weight”, “mice; […]” for “mice;”

SaOS-2 cells [5] = assay: TGF-β release from SaOS-2 cells; assay type: cell-based, Human; conditions: 8 hours
Method: Human osteoblast SaOS-2 cells [sourced from The European Collection of Cell Cultures (ECACC)] were seeded at a density of 2e5 cells/well in 24 well plates [Nunc, Roskilde, Denmark]. The cells were incubated in media [Life Technologies] supplemented with 10% FBS. Before adding test peptides of the invention, the media were changed with fresh 0.1% FBS-containing media 24 h previously. On the day of experimentation, media were removed and 1 ml of respective peptides of the invention GIP/Xenin, GIP/Xenin Asp and GIP/Xenin Glu [(DAla2)GIP/xenin-8-Gln, (DAla2)GIP/xenin-8-Gln(L-Asp), and (DAla2)GIP/xenin-8-Gln(L-Glu) respectively] (1e-12-1e-6 M) were added to each well. The plates were then incubated at 37° C. for a period of 8 hours. After incubation, media was collected and TGF-β released in the supernatant measured using a TGF-β Immunoassay kit (Quantikine, R&D Systems) according to the manufacturer's instructions. The concentration of TGF-β was calculated from a standard curve of recombinant human TGF-β ranging from […].

CC[C@H](C)[C@H](NC(=O)[C@H](CO)NC(=O)[C@H](Cc1ccc(O)cc1)NC(=O)[C@H](CC(=O)O)NC(=O)[C@H](CO)NC(=O)[C@@H](NC(=O)[C@H](Cc1ccccc1)NC(=O)[C@@H](NC(=O)CNC(=O)[C@H](CCC(=O)O)NC(=O)[C@@H](C)NC(=O)[C@@H](N)Cc1ccc(O)cc1)[C@@H](C)O)[C@@H](C)CC)C(=O)N[C@@H](C)C(=O)N[C@@H](CCSC)C(=O)N[C@@H](Cc1c[nH]cn1)C(=O)N1CCC[C@H]1C(=O)N[C@@H](CCC(N)=O)C(=O)N[C@@H](CCC(N)=O)C(=O)N1CCC[C@H]1C(=O)N[C@@H](Cc1c[nH]c2ccccc12)C(=O)N[C@H](C(=O)N[C@@H](CC(C)C)C(=O)O)[C@@H](C)CC [(DAla2)GIP/xenin-8-Gln, TYR-(d)ALA-GLU-GLY-THR-PHE-ILE-SER-ASP-TYR-SER-ILE-ALA-MET-HIS-PRO-GLN-GLN-PRO-TRP-ILE-LEU] (H-Y[dA]EGTFISDYSIAMHPQQPWIL-OH; N-terminus and C-terminus assumed)
HOMA-IR insulin sensitivity (high fat fed mice [1]; 21 days treatment, vs high fat controls): significantly (P<0.05) improved insulin sensitivity | Individual blood glucose levels following exogenous insulin (high fat fed mice [1]; insulin 15 U/kg i.p., day 21, vs high fat controls): reduced, albeit non-significantly | Overall glucose lowering effect of insulin (blood glucose AAC 0-60 min) (high fat fed mice [1]; insulin 15 U/kg i.p., day 21, vs saline control high fat mice): significantly (P<0.001) improved | Tibia trabecular bone volume density (high fat fed mice [2]): improved bone volume density (P<0.01) | Tibia trabecular number (high fat fed mice [2]): increased trabecular number (P<0.05) | Lowest effective concentration for cAMP production (SaOS-2 cells [3]): 100 pM | Body weight, fat and lean mass, food intake (high fat fed mice [4]): no significant change | TGF-β release from SaOS-2 cells (SaOS-2 cells [5]; 1e-12-1e-6 M): dose-dependently stimulated | Concentrations inducing significant TGF-β release (SaOS-2 cells [5]; SaOS-2 cells, P<0.01): 1 to 10000 pM
